The campaign covered roughly 53,000 sequences. About 3,700 (7%) were called active.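 Rule for the calls: active = gene knockdowns whose robust z-score for IL-1 alpha signal is at least 2 or at most -2, so actives lie on both sides; inactive = the rest.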 The list shows a part of the results.
Assay: Components of the Cytosolic LPS Sensing Pathway: Gene Identification via Genome-wide siRNA Screen;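 note: robust z of the log signal after scaling to non-targeting control siRNA wells of the plate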
Settings: RAW264.7 macrophages, IL-1a HTRF, actives lie on both sides, screened at 100 nM (by protocol), cells primed 5 h with Pam3CSK4 first
Summary of the method: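 Using IL-1a HTRF as read-out, the screen measured release from RAW264.7 cells after 48h siRNA knockdown (100 nM), 5 h Pam3CSK4 priming and 24 h cytosolic LipidA. Values were expressed relative to negative-control wells as robust z-scores.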

Sequence	z-score
GGCAGUUUCUGUGCUAUACTT against Olfr984	active: -2.49
GGUCUGGUAUGAGGAGAACTT against Prodh2	inactive: -0.205
GCAUGGUAUCAGGUACAUATT against Med9	active: 2.2
GGAUUUUGGCCAAAUUGGUTT against Slc25a30	active: -2.08
GCGGCCGACUUUGUGAAAGTT against Pno1	inactive: 0.124
GCUUUCUGAAUCCCAAGAGTT against Sh3bgr	inactive: -0.251
GGAAAUGAUACCUUACCACTT against Zfp715	inactive: 0.162
GGAGGUGGAACAAAUAUUUTT against Emc6	inactive: 0.361
GCAACACAUUUGAACCACUTT against Usp15	inactive: -1.79
GGAUUCGUCUAGGCUCGUATT against Rap2a	inactive: -0.427
GGAGCAAAUGAUUUCAUGUTT against Tcp1	inactive: -1.51
GGUAACCAAAACAAUUCUGTT against Cog8	inactive: -0.00241
CCGAGUGUAAUUUCCUAAATT against Pcdhgb5	inactive: 0.619
CCACAUCAAGCAGAAAGUCTT against Gm5800	inactive: -0.306
GGAUCUUCGGAAGACAUGUTT against Ppp1r3a	inactive: -0.633
GGAAGCAUCGAUCAAUCUATT against Homer2	inactive: 0.234
GGUCUAGAGCAAUUCCAUATT against Olfr656	inactive: 1.51
GGCCUGGAAGUAGCAUUGUTT against Mrpl17	inactive: 0.545
GGGACUUGUUGGAUGAAACTT against Gml2	inactive: -0.0216
GGUUUUUGGUGUGUUUCUCTT against Ppp1r12c	inactive: 0.207
GGACUUUGUGAGGCUCUUCTT against Lsm2	inactive: -1.25
GCAGUACAAGCCAUCUGUUTT against Olfm4	inactive: -0.0809
GCAUGAUAUCAGUGGCAAGTT against Itga11	active: -2.41

Sequence	z-score
GGAGAAGCUGAAAGGUUAUTT against Ifrd2	inactive: -0.647
CCUAUCGACACUGCCGAAATT against B3gnt4	inactive: -0.0411
GGUAGAUGAAGUCCUUUAUTT against Mthfs	inactive: 0.996
GGAUCAUUCUGUGAACAAGTT against Ly6h	inactive: 1.52
GGAUGAUUGCCAAAGCAGATT against Eps8	inactive: -0.956
GGAUGCAGAAGAUUUUGUGTT against Ptprcap	inactive: -0.704
GCACUAAGUUUUGGAUUAATT against Mapkap1	inactive: 0.369
GGAUCAAAGACGAAUUCCATT against Tle3	inactive: -1.97
GGAAGUUUUGGCUUAGGCATT against Tmco5b	inactive: 1.58
GCACUUUGAAUAUUGAUCGTT against Hipk3	inactive: -0.95
GGUCAGAGCAUUGUGAACATT against Abcb10	inactive: 0.443
GGUCUGAGCAUUCUCAGCATT against Mrgprb2	inactive: -1.34
CCACUGAAGGAAGUUCGCUTT against Amer2	inactive: 0.21
GGAGUUUUUAAAUGUUCUCTT against Syt1	inactive: 1.07
GGAACUGCCAUUGUAUGGGTT against Myo1g	inactive: -0.568
GGGACUUCAGGGAUUGAUUTT against Atp6v1b1	inactive: 0.969
GCUAGAUCCAUCCAUAUAGTT against Misp	inactive: -1.26
GGAUGACACACACUAUUAUTT against Plek2	inactive: 1.47
GGCCUUGAAUUUCUCCUAUTT against Dgcr8	inactive: -1.09
CGCGGCAUAAACAUGUAAATT against Gatc	inactive: -1.07
GGGUGAUGAGAUCUGUCUGTT against Upf1	inactive: -0.378
GGAGAGUAGAUUCUCCAUUTT against Zfp692	inactive: 0.332
GGUAACAUCUCCAUCAGCCTT against Nxph3	inactive: 0.34

Exported with bars between the fields: entries from further up.
Sequence | z-score
GGAAAUGAUACCUUACCACTT against Zfp715 | inactive: 0.162
GGAGGUGGAACAAAUAUUUTT against Emc6 | inactive: 0.361
GCAACACAUUUGAACCACUTT against Usp15 | inactive: -1.79
GGAUUCGUCUAGGCUCGUATT against Rap2a | inactive: -0.427
GGAGCAAAUGAUUUCAUGUTT against Tcp1 | inactive: -1.51
GGUAACCAAAACAAUUCUGTT against Cog8 | inactive: -0.00241
CCGAGUGUAAUUUCCUAAATT against Pcdhgb5 | inactive: 0.619
CCACAUCAAGCAGAAAGUCTT against Gm5800 | inactive: -0.306
GGAUCUUCGGAAGACAUGUTT against Ppp1r3a | inactive: -0.633
GGAAGCAUCGAUCAAUCUATT against Homer2 | inactive: 0.234
GGUCUAGAGCAAUUCCAUATT against Olfr656 | inactive: 1.51
GGCCUGGAAGUAGCAUUGUTT against Mrpl17 | inactive: 0.545
GGGACUUGUUGGAUGAAACTT against Gml2 | inactive: -0.0216
GGUUUUUGGUGUGUUUCUCTT against Ppp1r12c | inactive: 0.207
GGACUUUGUGAGGCUCUUCTT against Lsm2 | inactive: -1.25

Remaining list, next part

Sequence	z-score
CCAGUCUUGCCCUUUAGUGTT against Foxi2	inactive: -1.88
GGACCUGAAUCCUCCCAAATT against Sh3pxd2b	inactive: -0.473
GGCUGCAUUACCCAGCUUATT against Olfr853	inactive: 0.719
GCCCAAGACGACAUGAACUTT against Marchf6	inactive: 0.602
GGCUCAGAGUUAUUUUUGCTT against Natd1	inactive: -1.64
GCAUCCUACUUCUCAACUUTT against Ceacam12	inactive: 0.328
CGCGGUUGGUUUAUACAUATT against Sppl3	inactive: 0.334
GGAGAGCUGCAUCAAAAAGTT against Prdm16	inactive: 0.545
CCAUUAAGAUCCGAAGUAUTT against Lrrc58	inactive: -0.36
GCCCUACUAAGUCAAUUAATT against 1700055D18Rik	inactive: 0.248
CGGCAGAGAUUAUAUCAUCTT against Syn3	inactive: 1.06
GCAUACCUAUUCACGUACGTT against Slc7a4	inactive: -0.475
GGACGAGUACUGCUACAAUTT against Rrp8	inactive: -0.32
GGCUUUUAGAUUUGUUUCATT against Hspa9	inactive: 1.91
GCCUUAAGCUAACAGUGGATT against Nrxn3	inactive: -0.0525
CCGCCUCUUACCGAAGUUCTT against Mettl4	active: 3.04
GGGUCUGAUCCGACAUUUCTT against Ndufv1	inactive: -0.112
GAUAACCAUGUUCUUUGGATT against Defa-rs2	inactive: 0.835
CCAGCUGUGUAACACUACCTT against Gfi1	inactive: 1.08
GGUUGAAGUGGUUUGUCAUTT against Sft2d1	inactive: 0.447
GGGUCAAAAUGUGAGCUAUTT against Odr4	inactive: -0.413
GGAUCCACAGUCAUUCAGATT against Sike1	inactive: 1.13

From PubChem BioAssay AID1508600 (Functional Genomics Laboratory (NCATS/FGL), 2020)
